No constants are given. Whether binding was seen depends on the method and setting. For some of these results: In cells and extracts the contact can be indirect. Some results given as binding are weak or reduced against the parent protein; the word gives no strength.
Legend:
GST-DDX3X full-length = GST-DDX3X full-length (UniProt O00571); test: biotinylated RNA pull-down; biotinylated c-Myc 5'UTR RNA or control RNA on streptavidin magnetic beads with purified GST-K2/GST or GST-K2/GST-DDX3X; immunoblot with anti-Kindlin-2 antibodies; both purified
[1] = molecular target: DDX3X (endogenous, human MIA PaCa-2 cells) (human (endogenous in MIA PaCa-2)) (UniProt O00571); test: co-IP; endogenous proteins; 2 mg lysate of primary mouse PCCs or human MIA PaCa-2 cells; anti-Kindlin-2 (clone 3A3) or anti-DDX3X antibody overnight at 4 C, protein A/G Plus-Agarose, control mouse or rabbit IgG; immunoblot
[2] = molecular target: Kindlin-2 (endogenous, human MIA PaCa-2 cells) (human (endogenous in MIA PaCa-2)) (UniProt Q96AC1); test: as above
[3] = molecular target: T1, Kindlin-2 (endogenous, mouse primary pancreatic cancer cells) (mouse (endogenous in primary PCCs)) (UniProt Q8CIB5); test: as above
T1 sequence: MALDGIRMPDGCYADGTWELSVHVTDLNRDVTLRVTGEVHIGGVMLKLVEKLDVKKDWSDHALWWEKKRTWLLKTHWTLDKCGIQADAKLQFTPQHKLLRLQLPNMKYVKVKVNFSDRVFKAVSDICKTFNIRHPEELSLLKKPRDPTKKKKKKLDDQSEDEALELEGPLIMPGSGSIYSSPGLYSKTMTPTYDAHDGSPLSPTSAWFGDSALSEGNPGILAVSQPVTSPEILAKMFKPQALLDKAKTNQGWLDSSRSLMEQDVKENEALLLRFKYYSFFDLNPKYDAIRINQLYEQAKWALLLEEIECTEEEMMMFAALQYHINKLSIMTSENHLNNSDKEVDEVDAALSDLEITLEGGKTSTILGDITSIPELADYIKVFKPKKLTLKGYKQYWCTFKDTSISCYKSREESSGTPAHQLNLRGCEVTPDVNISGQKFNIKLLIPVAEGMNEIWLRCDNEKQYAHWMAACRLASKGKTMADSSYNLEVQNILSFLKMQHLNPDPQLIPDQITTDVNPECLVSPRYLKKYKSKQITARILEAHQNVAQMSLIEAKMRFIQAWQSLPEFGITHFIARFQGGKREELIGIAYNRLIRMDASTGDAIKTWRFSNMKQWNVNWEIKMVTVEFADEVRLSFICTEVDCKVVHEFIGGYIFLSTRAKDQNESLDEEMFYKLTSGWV

Chains of the proteins cited; added tags and fusions are not shown.
UniProt O00571: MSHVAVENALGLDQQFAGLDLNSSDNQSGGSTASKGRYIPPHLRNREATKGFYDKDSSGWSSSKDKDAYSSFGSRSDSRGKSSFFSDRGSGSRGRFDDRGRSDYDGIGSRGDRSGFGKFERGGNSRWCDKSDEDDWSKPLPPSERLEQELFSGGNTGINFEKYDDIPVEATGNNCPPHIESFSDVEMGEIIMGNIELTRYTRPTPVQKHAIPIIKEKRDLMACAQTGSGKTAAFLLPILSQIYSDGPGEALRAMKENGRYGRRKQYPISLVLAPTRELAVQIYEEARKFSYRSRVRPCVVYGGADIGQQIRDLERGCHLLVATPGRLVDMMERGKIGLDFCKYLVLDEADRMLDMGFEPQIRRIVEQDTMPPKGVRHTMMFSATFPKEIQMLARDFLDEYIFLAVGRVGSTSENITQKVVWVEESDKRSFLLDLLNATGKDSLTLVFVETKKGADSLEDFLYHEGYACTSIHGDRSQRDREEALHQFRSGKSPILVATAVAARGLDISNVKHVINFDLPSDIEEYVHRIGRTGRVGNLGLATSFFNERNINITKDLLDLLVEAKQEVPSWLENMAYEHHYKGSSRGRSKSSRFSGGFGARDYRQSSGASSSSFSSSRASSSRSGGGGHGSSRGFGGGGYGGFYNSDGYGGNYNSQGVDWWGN
UniProt Q62167: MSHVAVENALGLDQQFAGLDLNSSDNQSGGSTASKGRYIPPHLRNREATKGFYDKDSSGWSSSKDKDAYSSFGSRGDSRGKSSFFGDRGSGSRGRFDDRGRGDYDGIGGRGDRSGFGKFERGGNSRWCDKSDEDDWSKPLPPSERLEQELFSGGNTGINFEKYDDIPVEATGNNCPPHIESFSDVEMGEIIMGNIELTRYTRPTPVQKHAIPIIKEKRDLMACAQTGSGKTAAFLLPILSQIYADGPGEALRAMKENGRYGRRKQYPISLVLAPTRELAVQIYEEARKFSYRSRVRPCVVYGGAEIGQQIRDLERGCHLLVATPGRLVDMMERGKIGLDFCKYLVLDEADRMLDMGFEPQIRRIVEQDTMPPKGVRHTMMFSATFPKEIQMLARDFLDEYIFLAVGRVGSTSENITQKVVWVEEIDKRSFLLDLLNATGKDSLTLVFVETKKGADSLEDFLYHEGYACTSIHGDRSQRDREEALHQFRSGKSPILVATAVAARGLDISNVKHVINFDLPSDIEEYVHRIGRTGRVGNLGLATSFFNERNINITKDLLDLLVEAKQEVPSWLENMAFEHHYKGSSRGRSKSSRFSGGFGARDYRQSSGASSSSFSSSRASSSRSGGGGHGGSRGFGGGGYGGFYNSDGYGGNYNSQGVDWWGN

[4] = molecular target: GST-Kindlin-2 full-length (UniProt Q96AC1); test: pull-down; GST or GST-fusion proteins of Kindlin-2 on Glutathione-Sepharose, mixed with lysates of primary PCCs from KPC;WT mice overnight at 4 C; washed with PBS, 0.2% Triton X-100; immunoblot for endogenous DDX3X; only the target purified
[5] = molecular target: wild-type full-length Kindlin-2 (lentiviral, pLVX-K2-Hyg) (UniProt Q96AC1); test: co-IP; lysates of primary PCCs from KPC;K2 WT or KPC;K2 cKO mice infected with lentivirus encoding K2 WT, K2 ΔF1 or empty vector; anti-Kindlin-2 antibody; immunoblot
[6] = molecular target: DDX3X (endogenous, mouse primary pancreatic cancer cells) (mouse (endogenous in primary PCCs)) (UniProt Q62167); test: co-IP; endogenous proteins; 2 mg lysate of primary mouse PCCs or human MIA PaCa-2 cells; anti-Kindlin-2 (clone 3A3) or anti-DDX3X antibody overnight at 4 C, protein A/G Plus-Agarose, control mouse or rabbit IgG; immunoblot

Molecule: GST-Kindlin-2 full-length (from UniProt Q96AC1 1-680)
- binding (GST-DDX3X full-length): binds

Molecule: Kindlin-2 (endogenous, human MIA PaCa-2 cells) (from UniProt Q96AC1 1-680)
- binding [1]: binds

Molecule: DDX3X (endogenous, human MIA PaCa-2 cells) (from UniProt O00571 1-662)
- binding [2]: binds

Molecule: DDX3X (endogenous, mouse primary pancreatic cancer cells) (from UniProt Q62167 1-662)
- binding [3]: binds
- binding [4]: binds
- binding [5]: binds

B1: Kindlin-2 (endogenous, mouse primary pancreatic cancer cells) (protein, UniProt Q8CIB5 1-680)
chain: MALDGIRMPDGCYADGTWELSVHVTDLNRDVTLRVTGEVHIGGVMLKLVEKLDVKKDWSDHALWWEKKRTWLLKTHWTLDKCGIQADAKLQFTPQHKLLRLQLPNMKYVKVKVNFSDRVFKAVSDICKTFNIRHPEELSLLKKPRDPTKKKKKKLDDQSEDEALELEGPLIMPGSGSIYSSPGLYSKTMTPTYDAHDGSPLSPTSAWFGDSALSEGNPGILAVSQPVTSPEILAKMFKPQALLDKAKTNQGWLDSSRSLMEQDVKENEALLLRFKYYSFFDLNPKYDAIRINQLYEQAKWALLLEEIECTEEEMMMFAALQYHINKLSIMTSENHLNNSDKEVDEVDAALSDLEITLEGGKTSTILGDITSIPELADYIKVFKPKKLTLKGYKQYWCTFKDTSISCYKSREESSGTPAHQLNLRGCEVTPDVNISGQKFNIKLLIPVAEGMNEIWLRCDNEKQYAHWMAACRLASKGKTMADSSYNLEVQNILSFLKMQHLNPDPQLIPDQITTDVNPECLVSPRYLKKYKSKQITARILEAHQNVAQMSLIEAKMRFIQAWQSLPEFGITHFIARFQGGKREELIGIAYNRLIRMDASTGDAIKTWRFSNMKQWNVNWEIKMVTVEFADEVRLSFICTEVDCKVVHEFIGGYIFLSTRAKDQNESLDEEMFYKLTSGWV
- binding [6]: binds
